Test results: article PMC3557187
No constants are given. Whether binding was seen depends on the method and setting. In cells and extracts the contact can be indirect. Some entries that bind do so weakly or less than the wild type. Tags and fused reporters may be left off the sequences shown.

The chains behind the UniProt entries cited, without tags or fusion partners.
UniProt P84095: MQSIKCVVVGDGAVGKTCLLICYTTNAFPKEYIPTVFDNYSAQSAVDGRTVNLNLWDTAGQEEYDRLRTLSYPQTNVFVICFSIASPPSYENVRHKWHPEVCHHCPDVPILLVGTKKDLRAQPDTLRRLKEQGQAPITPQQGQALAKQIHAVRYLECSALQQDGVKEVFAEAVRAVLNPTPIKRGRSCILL

Target: T1, GST-ELMO-NT (GST fusion protein containing the N-terminal RhoG-binding domain of ELMO2, amino acids 1-362) (UniProt Q96JJ3)
T1 sequence: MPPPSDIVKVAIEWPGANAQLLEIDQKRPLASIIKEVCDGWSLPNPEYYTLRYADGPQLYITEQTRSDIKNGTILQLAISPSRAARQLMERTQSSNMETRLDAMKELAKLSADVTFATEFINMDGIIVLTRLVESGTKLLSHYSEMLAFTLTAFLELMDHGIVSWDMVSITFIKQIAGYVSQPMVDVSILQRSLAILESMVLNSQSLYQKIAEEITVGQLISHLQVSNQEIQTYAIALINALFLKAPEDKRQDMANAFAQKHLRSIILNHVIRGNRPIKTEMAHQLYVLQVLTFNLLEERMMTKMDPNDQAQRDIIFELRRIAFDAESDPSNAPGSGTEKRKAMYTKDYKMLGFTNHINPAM
Assay: pull-down; 500 mg (so in the source) of SNB19 lysate supernatant incubated with 20 ug GST-ELMO-NT and 10 ul GST beads, 1 hour, 4°C; lysis buffer 50 mM Tris-HCl pH 7.5, 100 mM NaCl, 10 mM MgCl2, 1% Triton X-100, 10% glycerol, 1 mM DTT; bound RhoG detected by western blot; cells serum starved 24 hours, then untreated or stimulated with HGF (25 ng/ml) or EGF; only the target purified

## RhoG small GTPase (from UniProt P84095 1-191)
  binding: binds
